Laboratory results taken from the supplement of paper PMC4604168 (melanoma cell lines).
The list shows a part of the results. Many values rest on one well or one pass, so single values are uncertain.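 Cells were imaged in 1,536-well plates, and nuclei stained with an antibody against cleaved PARP were counted against all DNA-stained nuclei to give the apoptosis fraction. Screening doses were chosen to leave most cells alive, and resting and induced cleaved-PARP levels differ strongly between cell lines.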

Key:
Test in all cases: cleaved PARP positive nuclei fraction relative to DMSO control; melanoma cells; higher = more apoptosis
Conditions in all cases: library dose: low library concentration; 72 h
WM115 = system: WM115
WM1716 = system: WM1716
WM1745 = system: WM1745
WM3526 = system: WM3526
WM3619 = system: WM3619
WM451Lu = system: WM451Lu

SMILES | cleaved PARP positive nuclei fraction (WM115) [%] | cleaved PARP positive nuclei fraction (WM1716) [%] | cleaved PARP positive nuclei fraction (WM1745) [%] | cleaved PARP positive nuclei fraction (WM3526) [%] | cleaved PARP positive nuclei fraction (WM3619) [%] | cleaved PARP positive nuclei fraction (WM451Lu) [%]
CS(=O)(=O)c1ccc(C(=O)Nc2ccc(Cl)c(-c3ccccn3)c2)c(Cl)c1 [vismodegib] + COc1ccc(Cl)c(Nc2nc3ccccc3nc2NS(=O)(=O)c2cccc(NC(=O)C(C)(C)N)c2)c1 [XL147] (first compound 1 µM, partner dose 0.8 µM) | 94.1 | 242 | 91 | 45.7 | 206 | 40.4
CCCCCCCCc1ccc(CCC(N)(CO)CO)cc1 [fingolimod] + OCCn1cc(-c2cnc3nnn(Cc4ccc5ncccc5c4)c3n2)cn1 [PF04217903] (first compound 2 µM, partner dose 1 µM) | 48.4 | 144 | 129 | 74.6 | 105 | 43.7
CS(=O)(=O)c1ccc(C(=O)Nc2ccc(Cl)c(-c3ccccn3)c2)c(Cl)c1 [vismodegib] + Nc1nc(F)nc2c1ncn2[C@@H]1O[C@H](CO)[C@@H](O)[C@@H]1O [fludarabine] (first compound 1 µM, partner dose 0.2 µM) | 69.9 | 131 | 85.8 | 647 | 207 | 305
C[C@@H](N)c1ccc(C(=O)Nc2ccnc3[nH]ccc23)cc1 + CC(=O)O[C@@]12CO[C@@H]1C[C@H](O)[C@@]1(C)C(=O)[C@H](O)C3=C(C)[C@@H](OC(=O)[C@H](O)[C@@H](NC(=O)OC(C)(C)C)c4ccccc4)C[C@@](O)([C@@H](OC(=O)c4ccccc4)[C@H]21)C3(C)C [Docetaxel] (first compound 0.4 µM, partner dose 0.0001 µM) | 192 | 207 | 167 | 79 | 139 | 141
C[C@@H](N)c1ccc(C(=O)Nc2ccnc3[nH]ccc23)cc1 + CS(=O)(=O)CCNCc1ccc(-c2ccc3ncnc(Nc4ccc(OCc5cccc(F)c5)c(Cl)c4)c3c2)o1 [lapatinib] (first compound 0.4 µM, partner dose 0.8 µM) | 78.2 | 97.5 | 145 | 122 | 150 | 49.2
C[C@]1(O)C[C@@H](c2nc(-c3ccc4ccc(-c5ccccc5)nc4c3)c3c(N)nccn32)C1 + Cc1cc([N+](=O)[O-])ccc1NS(=O)(=O)c1cc(Cl)ccc1Cl [FH535] (first compound 0.4 µM, partner dose 1 µM) | 45.5 | 27.6 | 115 | 94.3 | 104 | 157
CC(=O)O[C@@]12CO[C@@H]1C[C@H](O)[C@@]1(C)C(=O)[C@H](O)C3=C(C)[C@@H](OC(=O)[C@H](O)[C@@H](NC(=O)OC(C)(C)C)c4ccccc4)C[C@@](O)([C@@H](OC(=O)c4ccccc4)[C@H]21)C3(C)C [Docetaxel] + O=C(O)[C@@H]1[O][Sb](=[O])([O][Sb]2(=[O])[O][C@H]([C@H](O)CO)[C@H](O)[C@H](C(=O)O)[O]2)[O][C@H]([C@H](O)CO)[C@@H]1O [stibogluconate] (first compound 0.0001 µM, partner dose 2 µM) | 243 | 718 | 172 | 173 | 129 | 162
CC1(C)CCC(c2ccc(Cl)cc2)=C(CN2CCN(c3ccc(C(=O)NS(=O)(=O)c4ccc(N[C@H](CCN5CCOCC5)CSc5ccccc5)c(S(=O)(=O)C(F)(F)F)c4)cc3)CC2)C1 + Cn1c(Nc2ccc(C(F)(F)F)cc2)nc2cc(Oc3ccnc(-c4ncc(C(F)(F)F)[nH]4)c3)ccc21 [CHIR265] (first compound 0.4 µM, partner dose 0.08 µM) | 5820 | 509 | 2010 | 296 | 227 | 123
Cn1sc(=O)n(Cc2ccccc2)c1=O + O=C(Nc1ccccc1)c1cc([N+](=O)[O-])ccc1Cl [GW9662] (first compound 0.4 µM, partner dose 2 µM) | 147 | 80 | 88.3 | 75 | 106 | 183
CCCCCCCCc1ccc(CCC(N)(CO)CO)cc1 [fingolimod] + O=C(O)c1ccc(-c2c[nH]c3ncc(-c4ccccc4)cc23)cc1C1CCCC1 [GSK650394] (first compound 2 µM, partner dose 0.16 µM) | 63.2 | 87.8 | 112 | 34.2 | 98.8 | 65.1
CCN(CC)CCNC(=O)c1c(C)[nH]c(/C=C2\C(=O)Nc3ccc(F)cc32)c1C [sunitinib] + CC(=O)O[C@@]12CO[C@@H]1C[C@H](O)[C@@]1(C)C(=O)[C@H](O)C3=C(C)[C@@H](OC(=O)[C@H](O)[C@@H](NC(=O)OC(C)(C)C)c4ccccc4)C[C@@](O)([C@@H](OC(=O)c4ccccc4)[C@H]21)C3(C)C [Docetaxel] (first compound 0.4 µM, partner dose 0.0001 µM) | 252 | 111 | 138 | 333 | 100 | 89.8
Cn1sc(=O)n(Cc2ccccc2)c1=O + c1cc(-c2cnn3cc(-c4ccc(OCCN5CCCCC5)cc4)cnc23)ccn1 [Dorsomorphin] (first compound 0.4 µM, partner dose 0.4 µM) | 53.1 | 141 | 110 | 78.8 | 80.9 | 79
Cn1sc(=O)n(Cc2ccccc2)c1=O + CC(C)CCN1c2nc(Nc3cc(F)c(O)c(F)c3)ncc2N(C)C(=O)C1C [BID1870] (first compound 0.4 µM, partner dose 0.2 µM) | 103 | 106 | 78.9 | 556 | 92.6 | 107
Cn1sc(=O)n(Cc2ccccc2)c1=O + O=C(Nc1cccc(Cl)c1)Nc1ncc(CCNc2ncnc3ccsc23)s1 [SNS314] (first compound 0.4 µM, partner dose 0.0008 µM) | 118 | 84.5 | 106 | 102 | 100 | 158
NC(=O)c1ccc(N(C(N)=O)c2c(F)cccc2F)nc1-c1ccc(F)cc1F + NC1(c2ccc(-c3nc4ccn5c(=O)[nH]nc5c4cc3-c3ccccc3)cc2)CCC1 [MK2206] (first compound 0.4 µM, partner dose 0.4 µM) | 372 | 136 | 102 | 259 | 103 | 315
CCN(CC)CCNC(=O)c1c(C)[nH]c(/C=C2\C(=O)Nc3ccc(F)cc32)c1C [sunitinib] + N#Cc1c(O)c2c(-c3ccc(-c4ccccc4O)cc3)csc2[nH]c1=O [A769662] (first compound 0.4 µM, partner dose 2 µM) | 150 | 76.8 | 103 | 71.2 | 89.8 | 62.7
CN(c1ncccc1CNc1nc(Nc2ccc3c(c2)CC(=O)N3)ncc1C(F)(F)F)S(C)(=O)=O + Nc1nc(F)nc2c1ncn2[C@@H]1O[C@H](CO)[C@@H](O)[C@@H]1O [fludarabine] (first compound 0.08 µM, partner dose 0.2 µM) | 265 | 2010 | 112 | 1470 | 91.7 | 98.2
Cn1sc(=O)n(Cc2ccccc2)c1=O + COCC[n+]1c2c(n(Cc3cnccn3)c1C)C(=O)c1ccccc1C2=O [YM155] (first compound 0.4 µM, partner dose 0.0004 µM) | 92.3 | 14.5 | 101 | 40.3 | 90.7 | 53.9
NC(=O)c1ccc(N(C(N)=O)c2c(F)cccc2F)nc1-c1ccc(F)cc1F + CN(NC(=O)CC(=O)NN(C)C(=S)c1ccccc1)C(=S)c1ccccc1 [STA4783] (first compound 0.4 µM, partner dose 0.006 µM) | 171 | 120 | 250 | 178 | 136 | 266
NC(=O)c1ccc(N(C(N)=O)c2c(F)cccc2F)nc1-c1ccc(F)cc1F + N#Cc1c(O)c2c(-c3ccc(-c4ccccc4O)cc3)csc2[nH]c1=O [A769662] (first compound 0.4 µM, partner dose 2 µM) | 107 | 22.7 | 92.5 | 46 | 82.8 | 105
CN(c1ncccc1CNc1nc(Nc2ccc3c(c2)CC(=O)N3)ncc1C(F)(F)F)S(C)(=O)=O + Cn1c(Nc2ccc(C(F)(F)F)cc2)nc2cc(Oc3ccnc(-c4ncc(C(F)(F)F)[nH]4)c3)ccc21 [CHIR265] (first compound 0.08 µM, partner dose 0.08 µM) | 522 | 87.5 | 221 | 281 | 146 | 71.3
C[C@@H](N)c1ccc(C(=O)Nc2ccnc3[nH]ccc23)cc1 + OCc1c[nH]c2ccccc12 [Indole-3-carbinol] (first compound 0.4 µM, partner dose 0.8 µM) | 233 | 113 | 141 | 43.3 | 99.6 | 55.4
NC(=O)c1ccc(N(C(N)=O)c2c(F)cccc2F)nc1-c1ccc(F)cc1F + Cc1ccc(NC(=O)c2cccc(N(C)C)c2)cc1NC(=O)c1ccc(O)cc1 [ZM336372] (first compound 0.4 µM, partner dose 2 µM) | 66.6 | 97.8 | 107 | 73.1 | 114 | 53.9
COc1ccc(C2=N[C@@H](c3ccc(Cl)cc3)[C@@H](c3ccc(Cl)cc3)N2C(=O)N2CCNC(=O)C2)c(OC(C)C)c1 [Nutlin-3] + COc1ccc(-c2ccc3c(N4CCOCC4)nc(N4C[C@@H](C)O[C@@H](C)C4)nc3n2)cc1CO [KU0063794] (first compound 0.1 µM, partner dose 0.02 µM) | 167 | 173 | 91.8 | 85.6 | 119 | 99.6

No new results follow: entries from further up.
SMILES | cleaved PARP positive nuclei fraction (WM115) [%] | cleaved PARP positive nuclei fraction (WM1716) [%] | cleaved PARP positive nuclei fraction (WM1745) [%] | cleaved PARP positive nuclei fraction (WM3526) [%] | cleaved PARP positive nuclei fraction (WM3619) [%] | cleaved PARP positive nuclei fraction (WM451Lu) [%]
Cn1sc(=O)n(Cc2ccccc2)c1=O + c1cc(-c2cnn3cc(-c4ccc(OCCN5CCCCC5)cc4)cnc23)ccn1 [Dorsomorphin] (first compound 0.4 µM, partner dose 0.4 µM) | 53.1 | 141 | 110 | 78.8 | 80.9 | 79
Cn1sc(=O)n(Cc2ccccc2)c1=O + CC(C)CCN1c2nc(Nc3cc(F)c(O)c(F)c3)ncc2N(C)C(=O)C1C [BID1870] (first compound 0.4 µM, partner dose 0.2 µM) | 103 | 106 | 78.9 | 556 | 92.6 | 107
